Measurements published in PubChem BioAssay AID651814 (National Center for Advancing Translational Sciences (NCATS), 2012).
Out of some 2,100 compounds screened, about 590 (28%) were called active. The inconclusive results got no clear call from the source; some entries with a clear call stand among them for comparison. Calls come from the whole dose curve; as a rule, active = well fitted inhibition curve with a large enough effect; inconclusive = small, poorly fitted or top-dose-only effect; inactive = flat fitted curve, though single readings scatter. Potencies beside an inconclusive call are fits to weak or partial responses and may not hold up.

Amino acid sequences for entries named in this document (tags omitted). A change or cut given only in a name is not applied to a line headed by its entry.
UniProt Q8IUX4: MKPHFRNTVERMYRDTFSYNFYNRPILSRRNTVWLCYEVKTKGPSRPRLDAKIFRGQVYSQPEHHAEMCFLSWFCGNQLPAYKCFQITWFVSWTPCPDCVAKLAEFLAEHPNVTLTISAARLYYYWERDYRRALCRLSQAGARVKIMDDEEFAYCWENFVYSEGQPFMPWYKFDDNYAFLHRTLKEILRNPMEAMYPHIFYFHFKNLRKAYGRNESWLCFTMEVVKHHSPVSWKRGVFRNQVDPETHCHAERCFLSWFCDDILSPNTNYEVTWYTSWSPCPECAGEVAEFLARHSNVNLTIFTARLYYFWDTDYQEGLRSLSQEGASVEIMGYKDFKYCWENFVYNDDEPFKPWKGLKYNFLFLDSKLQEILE

What follows are molecules tested against DNA dC->dU-editing enzyme APOBEC-3F (Homo sapiens) (UniProt Q8IUX4) (assay: qHTS for inhibitors of Vif-A3F interactions: Cherry picks). Conditions: HeLa A3F-eYFP + Vif (tagged APOBEC3F with the HIV-1 protein that degrades it), eYFP fluorescence, 24 h.
Method in brief: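 HeLa cells stably expressing A3F-eYFP plus Vif, cultured overnight, then exposed to compounds at several concentrations for 24 h at 37 deg C. Reduced Vif-driven degradation read as rising eYFP fluorescence (488 nm ex/500-530 nm em) by laser-scanning cytometry; MG132 as positive control.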
Note: nearly all actives have a fitted effect of over 70% in size.
Potency is the fitted concentration of half-maximal effect.
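Throughout, for max response: % of control where 0% means no effect; active compounds raise eYFP fluorescence by blocking Vif-driven A3F loss.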

SMILES | Potency | max response
COc1ccc2c(c1)c(/C=C/c1cc[n+](C)cc1)cn2C | active: 2.23 µM | –
c1ccc(N=Nc2ccc3cccccc2-3)cc1 | inconclusive: 15.8 µM [inhibitor, single point] | –
COc1cc2c(cc1OC)CN(C(=O)c1ccc3nc[nH]c3c1)CC2 | inconclusive: 19.8 µM [inhibitor, single point] | –
O=C(c1[nH]c(C(F)(F)F)nc1-c1ccccc1)N1CCN(c2cccc(C(F)(F)F)n2)CC1 | inconclusive: 1.77 µM [inhibitor, full curve] | –
Cc1cc(C(=O)N/N=C/c2ccc(C)o2)c2ccccc2n1 | inconclusive: 3.53 µM [inhibitor, full curve] | –
CCc1cc(/C=C/c2ccnc3ccccc23)ccc1N(C)C | active: 14.6 µM | –
c1ccc(N=NC2=NN(c3ccccc3)CS2)cc1 | – | inactive: 0.337%
Brc1ccc2c(c1)C(c1cccnc1)=NNC(c1cccs1)=N2 | inconclusive: 9.94 µM [inhibitor, partial curve, poor fit] | –
COc1cc(N2CCCC2)c(OC)cc1/C=C1/NC(=S)NC1=O | active: 3.53 µM | –
CCCCN(CCCC)S(=O)(=O)c1ccc(C(=O)Nc2sc3c(c2C(N)=O)CCN(CC)C3)cc1 | inconclusive: 29.1 µM [inhibitor, single point] | –
O=c1c2ccccc2sc2ccc(NCCCN3CCOCC3)cc12 | active: 20.6 µM | –
Cc1cccc(NC(=O)/C(C#N)=C/c2cn(CC(=O)NCc3ccco3)c3ccccc23)c1C | inconclusive: 17.7 µM [inhibitor, single point] | –
COc1ccc(C)cc1NCc1cc(=O)oc2cc(-c3ccccc3)c(O)cc12 | – | inactive: -18.7%
COc1ccc(-c2cc3ccccc3oc2=O)cc1NC(=S)NC(=O)c1ccc2c(c1)OCCO2 | inconclusive: 7.31 µM [inhibitor, partial curve] | –
Cc1ccc(N2C(=O)[C@@H]3[C@H](C2=O)[C@H]2C=C(C(=O)c4ccccc4)C=CN2[C@@H]3C(=O)c2ccc(Cl)cc2)cc1 | – | inactive: -5.61%
COc1ccc2nc(NC(=O)Nc3ccccc3OC)sc2c1 | inconclusive: 2.5 µM [inhibitor, full curve] | –
COc1ccc(-c2[nH]ncc2N=Nc2ccccc2)cc1 | inconclusive: 17.7 µM [inhibitor, partial curve] | –
Cc1ccc(C2NC(=O)c3ccccc3N2)s1 (centres undefined) | inconclusive: 11.2 µM [inhibitor, partial curve] | –
COc1ccc2c(c1)c(C(=O)N/N=C/c1ccc(Cl)cc1)c(C)n2C | inconclusive: 9.94 µM [inhibitor, partial curve] | –

Four entries from above, comma-delimited.
SMILES,Potency,max response
COc1ccc2c(c1)c(/C=C/c1cc[n+](C)cc1)cn2C,active: 2.23 µM,–
O=C(c1[nH]c(C(F)(F)F)nc1-c1ccccc1)N1CCN(c2cccc(C(F)(F)F)n2)CC1,"inconclusive: 1.77 µM [inhibitor, full curve]",–
Cc1cccc(NC(=O)/C(C#N)=C/c2cn(CC(=O)NCc3ccco3)c3ccccc23)c1C,"inconclusive: 17.7 µM [inhibitor, single point]",–
COc1ccc2c(c1)c(C(=O)N/N=C/c1ccc(Cl)cc1)c(C)n2C,"inconclusive: 9.94 µM [inhibitor, partial curve]",–
